Data as given in PubChem BioAssay AID1347075 (National Center for Advancing Translational Sciences (NCATS), 2019).
Out of some 400,000 compounds screened, about 5,500 (1.4%) were called active. The shares of active, inactive and inconclusive entries below differ from those in the screen. Calls follow the shape of the dose curve; as a rule, active = well fitted cell-killing curve with a large enough effect; inconclusive = small, poorly fitted or top-dose-only effect, or effect the other way; inactive = flat fitted curve, though single readings scatter. A potency beside an inconclusive call is a rough fit, not a confirmed value.

assay: qHTS assay for MDR1-selective chemotherapeutics: Primary screen using the parental adenocarcinoma cell KB-3-1; conditions: KB-3-1 viability, CellTiter-Glo ATP luminescence, 72 h; activity change, negative = cytotoxic: at 46.1 µM (top of the series); also: nearly all actives have a fitted effect of over 60% in size
How it was run: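 Using CellTiter-Glo luminescence, growth of non-resistant KB-3-1 adenocarcinoma cells is assessed 72 h after pin-tool compound addition at 37 °C. Normalized responses across the concentration series yield fitted curves.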
% is scaled to controls: 0 for no effect and ±100 for the full control effect; potency is read from the fitted curve at half-maximal effect.

SMILES | activity change, negative = cytotoxic | Potency
O=C(Cn1nnc(-c2ccccc2)n1)Nc1ccccc1N1CCOCC1 | inactive: 3.07% | –
COc1ccc(C)cc1NC(=O)C(Sc1nnc(-c2ccncc2)n1-c1ccc(Cl)cc1)c1ccccc1 (stereo unspecified) | – | inconclusive: 29.1 µM [cytotoxic, single point]
CCOc1ccc(OCc2ccc(C(=O)NN=Cc3ccc[nH]3)cc2)cc1 | – | active: 2.31 µM
Cc1c(C(=O)NCc2ccc(F)cc2)oc2ccc(S(=O)(=O)N3CCCCC3)cc12 | – | inconclusive: 8.2 µM [cytotoxic, partial curve, poor fit]
Cc1ccc(OCCN2C(=O)c3ccccc3C2=O)c([N+](=O)[O-])c1 | inactive: 0.498% | –
CCOC(=O)c1cnc2c(c(C)nn2CC)c1Cl | – | inconclusive: 20.6 µM [cytotoxic, single point]
Cc1ccc2nc(N(CCCN(C)C)C(=O)c3ccc(S(=O)(=O)N4CCCCCC4)cc3)sc2c1 | – | inconclusive: 29.1 µM [cytotoxic, single point]
CC(=O)Oc1ccc(N2C(=O)C3C(C2=O)C(C(=O)c2ccc(Cl)cc2)N2CCCC32)cc1 (stereo unspecified) | – | active: 18.4 µM
c1ccc2c(c1)oc1c(Nc3ccc(CN4CCOCC4)cc3)ncnc12 | – | inconclusive: 29.1 µM [cytotoxic, single point]
CC(=O)Nc1cccc(NC(=O)c2ccccc2OCc2ccccc2)c1 | inactive: 22.1% | –
COC(=O)c1ccc(NC(=O)CCN2CCN(CCC(=O)Nc3ccc(C(=O)OC)cc3)CC2)cc1 | inactive: -25.7% | –
CC(=O)Nc1ccccc1C(=O)C(=O)Nc1cccc(F)c1 | inactive: 0.0098% | –
Cc1nc2ccccc2cc1OCc1ccc(Cl)cc1 | – | active: 2.59 µM
O=C(CCn1c(=O)oc2cc(Cl)ccc21)Nc1ccc(N2CCOCC2)cc1 | inactive: -0.201% | –
COc1ccc(C(=O)C[n+]2cccc3cc(C)ccc32)cc1 | – | inconclusive: 29.1 µM [cytotoxic, single point]
CCCCC(CCC(=O)Nc1ccccc1C(=O)OCC)C(=O)O (stereo unspecified) | inactive: 7.79% | –
COc1ccc(OC)c(CNC(=O)CCN2C(=O)COc3ccccc32)c1 | – | inconclusive: 32.6 µM [cytotoxic, single point]
O=C(N/N=C/c1cccnc1)c1ccccc1OCc1cccc(Br)c1 | inactive: -2.46% | –
O=C(c1cc2nc(-c3ccccc3)cc(-c3ccccc3)n2n1)N1CCN(C(=O)c2ccco2)CC1 | – | inconclusive: 29.1 µM [cytotoxic, single point]
CC(C)c1ccc2[nH]c(O)c(N=NC(=O)c3cccc(S(=O)(=O)Nc4ccc(Cl)cc4)c3)c2c1 | inactive: -0.861% | –
CCN(CC)c1nc2ccccc2nc1C(=O)Nc1ccc(C(C)=O)cc1 | inactive: 11.4% | –
CC(=O)N(C)c1ccc(OCC(O)Cn2c(C)nc3ccccc32)cc1 (stereo unspecified) | – | inconclusive: 29.1 µM [cytotoxic, single point]
O=C(N/N=C/c1ccc(OC(F)F)cc1)c1cc[n+]([O-])cc1 | – | inconclusive: 20.6 µM [cytotoxic, single point]
Cc1nn(S(=O)(=O)c2ccc(C(C)C)cc2)c(C)c1S(=O)(=O)N1CCOCC1 | inactive: -7.74% | –

Single records, from the list above. Order of values: activity change, negative = cytotoxic | Potency
O=C(N/N=C/c1cccnc1)c1ccccc1OCc1cccc(Br)c1 reads inactive: -2.46% | –
Cc1nc2ccccc2cc1OCc1ccc(Cl)cc1 reads – | active: 2.59 µM

(list continues)

SMILES | activity change, negative = cytotoxic | Potency
COc1ccc(C2(OC)Oc3cc(OC)ccc3C(=O)C2(O)OC)cc1 (stereo unspecified) | – | inconclusive: 6.51 µM [cytotoxic, full curve]
CC(=O)Nc1ccc(CNc2nc3cc(-c4ccsc4)sc3c(=O)n2C)cc1 | – | inconclusive: 7.31 µM [cytotoxic, partial curve]
Clc1ccc2nc(C3CCCCC3)c(Cc3ccsc3)n2c1 | – | inconclusive: 18.4 µM [cytotoxic, single point]
CC(C)c1ccc(/C=C2\C=Cc3ccccc32)cc1 | inactive: 22.9% | –
NC(=O)CC(NC(=O)c1ccc(Br)cc1)c1ccc(NC2CCCCCC2)c([N+](=O)[O-])c1 (stereo unspecified) | – | inconclusive: 0.461 µM [cytotoxic, full curve, poor fit]
COc1ccccc1NC(=O)CN1CCN(CC(=O)Nc2ccc(Cl)c(C(F)(F)F)c2)CC1 | – | inconclusive: 29.1 µM [cytotoxic, single point]
O=C1c2ccccc2C(=O)N1CC(O)Cn1nnc2ccccc21 (stereo unspecified) | inactive: -0.543% | –
Cc1cccc(COc2ccc(/C=N/NC(=O)c3nnn(-c4nonc4N)c3COc3ccc(F)cc3)cc2)c1 | – | inconclusive: 18.4 µM [cytotoxic, single point]
Cc1ccc(O)c(-c2cc(-c3ccccc3F)[nH]n2)c1 | – | inconclusive: 29.1 µM [cytotoxic, single point]
COc1ccc2nc(C)cc(SCC(=O)N/N=C/c3c(OC)ccc4ccccc34)c2c1 | – | inconclusive: 18.4 µM [cytotoxic, partial curve]
CCc1ccc2c(c1)c1nnc(NN)nc1n2CC | – | inconclusive: 16.4 µM [cytotoxic, single point]
COCCn1c(C)cc(C(=O)CSc2ccc(NC(C)=O)cc2)c1C | inactive: -1.48% | –
Cc1cc(C(=O)N/N=C/c2ccc([N+](=O)[O-])s2)c2ccccc2n1 | – | inconclusive: 29.1 µM [cytotoxic, single point]
COc1ccc(CC(=O)Nc2ccc3nc(Nc4cccc(Cl)c4)cc(C)c3c2)cc1OC | – | inconclusive: 29.1 µM [cytotoxic, single point]
Cc1csc(NC(=O)CSc2nnc(-c3ccoc3C)n2C(C)c2ccccc2)n1 (stereo unspecified) | inactive: -14.5% | –
COc1ccccc1-n1cc(-c2ccc(C)cc2)nc1S(=O)(=O)CC(=O)Nc1ccccc1C(F)(F)F | – | inconclusive: 29.1 µM [cytotoxic, single point]
CCOc1ccc(NC(=O)CN2CCCC2c2cccs2)cc1S(=O)(=O)N1CCCCC1 (stereo unspecified) | – | inconclusive: 32.6 µM [cytotoxic, single point]
CC(=O)NC(CC(=O)Nc1cccc(S(=O)(=O)N2CCOCC2)c1)c1ccccc1 (stereo unspecified) | inactive: 7.43% | –
COc1ccc(-c2c(C)nn3c(C)cc(C)nc23)cc1 | inactive: -6.05% | –
O=C(c1cc(COc2c(F)cccc2F)on1)N1CCCCCC1 | inactive: 0.932% | –
Cc1ccc(NC(=O)C2CCCN(C(=O)c3ccc(Cl)cc3)C2)c(C)c1 (stereo unspecified) | inactive: 0% | –
CN1CCN(c2ccc(-c3cc(NC=O)c4ncc(-c5ccc(F)c(Cl)c5)n4c3)cc2)CC1 | – | inconclusive: 29.1 µM [cytotoxic, single point]
CCC1CCCCN1CCCNC(=O)c1ccc(CS(=O)(=O)c2ccccc2OC)o1 (stereo unspecified) | inactive: 14% | –
CCCCCc1ccc(OCCCC[n+]2ccc(C)cc2)c(CCCCC)c1 | – | active: 5.8 µM

Grouped by structure: those above containing bromine
SMILES | activity change, negative = cytotoxic | Potency
O=C(N/N=C/c1cccnc1)c1ccccc1OCc1cccc(Br)c1 | inactive: -2.46% | –
NC(=O)CC(NC(=O)c1ccc(Br)cc1)c1ccc(NC2CCCCCC2)c([N+](=O)[O-])c1 (stereo unspecified) | – | inconclusive: 0.461 µM [cytotoxic, full curve, poor fit]

Further entries:

SMILES | activity change, negative = cytotoxic | Potency
O=C(Nc1ccccc1)Nc1ccccc1Br | – | inconclusive: 0.517 µM [cytotoxic, single point]
CCN(Cc1ccccc1)C(c1ccc(C)cc1)c1nnnn1C(C)(C)C (stereo unspecified) | – | inconclusive: 16.4 µM [cytotoxic, single point]
C[N+](C)(C)CCC(=O)N1C/C(=C/c2ccccc2)C(=O)/C(=C\c2ccccc2)C1 | – | inconclusive: 23.1 µM [cytotoxic, single point]
Cc1ccc(S(=O)(=O)CCC(=O)Nc2nc3c(s2)CCCC3)cc1 | – | inconclusive: 29.1 µM [cytotoxic, single point]
CC(=O)n1cc([C@@H]2C=C(C(=O)N3CCN(Cc4ccccc4)CC3)O[C@H](OCc3ccc(CO)cc3)C2)c2ccccc21 | – | inconclusive: 29.1 µM [cytotoxic, single point]
COc1cccc(NC(=O)c2ccc3c(O)c(S(=O)(=O)c4ccccc4)c(=O)[nH]c3c2)c1 | inactive: 0.611% | –
O=C(CNC(=O)c1ccccc1Cl)OCc1cc(=O)n2ccsc2n1 | inactive: 4.74% | –
COc1ccccc1C(=O)N(Cc1ccccc1)c1ccc(C)cc1 | – | inconclusive: 16.4 µM [cytotoxic, single point]
CC(C)(C)c1ccc(-c2cc(-c3ccccc3O)[nH]n2)cc1 | – | inconclusive: 18.4 µM [cytotoxic, partial curve]
O=C(c1cccc(Cl)c1)n1nc(-c2ccco2)nc1NCc1cccs1 | – | inconclusive: 25.9 µM [rising, single point]
Cc1ccccc1N=C1SCC(=O)N1Cc1ccccc1 | inactive: -14.4% | –
O=C(NCC1CCCO1)C1CC(=O)N(C2CCCC2)C1 (stereo unspecified) | – | inconclusive: 32.6 µM [cytotoxic, single point]
COc1ccc(C2c3ccc4ccccc4c3Oc3ncn(CCCN(C)C)c(=N)c32)cc1 (stereo unspecified) | – | inconclusive: 16.4 µM [cytotoxic, single point]
C(=N\Nc1ccccn1)/c1cccnc1 | inactive: 21.9% | –
Brc1csc(CN2CCc3nc(Nc4ccccc4)ncc3C2)c1 | – | inconclusive: 29.1 µM [cytotoxic, single point]
Cc1cccc(NC(=O)c2cc(S(=O)(=O)N3CCCCC3)c[nH]2)c1C | – | inconclusive: 16.4 µM [cytotoxic, single point]
COC(=O)[C@@]1(Cc2ccc(F)cc2)[C@H]2c3cc(C(=O)N(C)C)n(CCc4c[nH]c5ccc(OC)cc45)c3C[C@H]2CN1C(=O)c1ccccc1 | – | inconclusive: 20.6 µM [cytotoxic, single point]
Cc1cccc(OCC(=O)Nc2nc(-c3ccncc3)cs2)c1 | – | inconclusive: 29.1 µM [rising, single point]
O=C(CSc1nnnn1-c1cccc2ccccc12)Nc1ccc(C(=O)O)cc1 | inactive: 3% | –
CC1CC(C)CN(CCCNC(=O)c2csc3c2CCCC3)C1 (stereo unspecified) | inactive: -13.5% | –
CCCOc1ccc(F)cc1-c1cc(C(=O)Nc2ccc(C)c(NS(C)(=O)=O)c2)[nH]n1 | – | inconclusive: 29.1 µM [cytotoxic, single point]
COc1ccc(S(=O)(=O)N2CCN(C3CCN(Cc4ccccc4)CC3)CC2)cc1 | – | inconclusive: 25.9 µM [cytotoxic, partial curve, poor fit]
COc1cc([N+](=O)[O-])cc(/C=N/NC(=O)C(C)Nc2cccc3ccccc23)c1O (stereo unspecified) | – | inconclusive: 29.1 µM [cytotoxic, single point]
